Drawing on article PMC4641719, this text covers binding for one substance.

Amino acid sequences for entries named in this document (tags omitted). Residues count along the entry.
UniProt Q9QUN7, residues 25-784: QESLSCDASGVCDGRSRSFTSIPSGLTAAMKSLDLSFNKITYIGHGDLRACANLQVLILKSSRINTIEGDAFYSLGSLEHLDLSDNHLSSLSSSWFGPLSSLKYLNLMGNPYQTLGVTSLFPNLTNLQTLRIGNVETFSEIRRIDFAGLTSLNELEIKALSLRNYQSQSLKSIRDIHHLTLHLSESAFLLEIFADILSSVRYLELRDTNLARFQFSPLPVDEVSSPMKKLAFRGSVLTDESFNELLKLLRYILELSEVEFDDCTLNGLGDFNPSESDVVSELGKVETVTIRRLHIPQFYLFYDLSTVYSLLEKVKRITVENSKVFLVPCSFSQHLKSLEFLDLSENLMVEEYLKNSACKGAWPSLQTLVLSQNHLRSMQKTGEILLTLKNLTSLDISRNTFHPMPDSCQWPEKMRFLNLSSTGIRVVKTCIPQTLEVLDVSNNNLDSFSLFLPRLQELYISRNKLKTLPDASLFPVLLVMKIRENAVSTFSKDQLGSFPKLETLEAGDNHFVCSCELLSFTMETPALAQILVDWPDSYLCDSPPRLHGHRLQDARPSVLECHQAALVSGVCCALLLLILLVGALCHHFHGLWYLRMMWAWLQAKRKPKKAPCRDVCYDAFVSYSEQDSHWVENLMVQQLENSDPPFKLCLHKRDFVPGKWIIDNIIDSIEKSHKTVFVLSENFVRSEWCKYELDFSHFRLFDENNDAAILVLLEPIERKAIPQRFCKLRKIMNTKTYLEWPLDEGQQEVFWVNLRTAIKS
UniProt P22366: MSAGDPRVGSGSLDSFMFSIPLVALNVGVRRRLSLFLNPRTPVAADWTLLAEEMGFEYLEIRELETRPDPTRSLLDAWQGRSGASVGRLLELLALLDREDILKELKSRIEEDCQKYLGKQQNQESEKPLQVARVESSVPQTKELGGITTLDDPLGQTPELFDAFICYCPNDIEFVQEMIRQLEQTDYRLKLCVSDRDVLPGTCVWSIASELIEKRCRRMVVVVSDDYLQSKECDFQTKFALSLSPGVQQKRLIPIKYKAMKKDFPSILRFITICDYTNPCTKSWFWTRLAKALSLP

The target of this assay is Toll-like Receptor 2 (mouse (endogenous in BALB/c splenic CD8+ T-cells)) (UniProt Q9QUN7). In words: co-IP; lysates of purified mouse CD8+ T-cells (stimulated with plate-bound anti-CD3ε and CD28, control siRNA or TLR2 siRNA, with or without Ara-LAM 3 μg/mL for 24 hr); precipitated with anti-TLR2 or anti-MyD88 antibody, captured on Protein A-agarose, blots probed with anti-MyD88 or anti-IRAK1.

These are yes or no findings as the source states them, for the method shown. In cells and extracts the contact can be indirect. Some results given as binding are weak or reduced against the parent protein; the word gives no strength.

With MyD88 (from UniProt P22366 1-296), the binding result was “binds”.
